PubChem BioAssay AID686943 – Drosophila RNAi Screening Center, 2013
In all, the deposit lists about 23,000 reagents; below is a random part of those with a known target gene and a result. 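Extra replicates exist only for a retested subset of genes; insulin dose and duration not given; both raised and lowered dpERK matter.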 A plus sign joins genes that one reagent is predicted to hit. Not all columns of the deposit are shown. Not given: the amount of reagent, the time to read-out.

- Screen: 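Search across the genome for regulators of signalling from receptor tyrosine kinase to ERK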 (primary screen)
- Cells: Drosophila S2R+ haemocyte-like cells expressing YFP-tagged ERK (Rolled)
- Reagent: long dsRNA against Drosophila genes
- Treatment: insulin stimulation versus unstimulated cells; dose and duration not given
- Detection: 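Per-plate z-scores of phospho-ERK immunostaining normalised to YFP-tagged ERK, measured with and without insulin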
- Reading the numbers: replicate 1, z-score of dpERK with insulin: higher = more active ERK per ERK-YFP after insulin

{"gene":"Tsp97E (Tetraspanin 97E)","DRSC id":"DRSC16019","replicate 1, z-score of dpERK with insulin":-0.05}
{"gene":"CG4338","DRSC id":"DRSC15564","replicate 1, z-score of dpERK with insulin":0.25}
{"gene":"CG14187","DRSC id":"DRSC10186","replicate 1, z-score of dpERK with insulin":0.17}
{"gene":"Sgs5bis","DRSC id":"DRSC16263","replicate 1, z-score of dpERK with insulin":-0.14}
{"gene":"Lerp (lysosomal enzyme receptor protein)","DRSC id":"DRSC14750","replicate 1, z-score of dpERK with insulin":-2.19}
{"gene":"Lerp (lysosomal enzyme receptor protein)","DRSC id":"DRSC14751","replicate 1, z-score of dpERK with insulin":0.21}
{"gene":"Lerp (lysosomal enzyme receptor protein)","DRSC id":"DRSC16030","replicate 1, z-score of dpERK with insulin":0.61}
{"gene":"Lerp (lysosomal enzyme receptor protein)","DRSC id":"DRSC16031","replicate 1, z-score of dpERK with insulin":0.12}
{"gene":"CG8726","DRSC id":"DRSC07250","replicate 1, z-score of dpERK with insulin":1.13}
{"gene":"CG15387","DRSC id":"DRSC00401","replicate 1, z-score of dpERK with insulin":0.15}
{"gene":"mxt (mextli)","DRSC id":"DRSC00551","replicate 1, z-score of dpERK with insulin":-0.11}
{"gene":"nompC (no mechanoreceptor potential C)","DRSC id":"DRSC03581","replicate 1, z-score of dpERK with insulin":0.13}
{"gene":"CG13074","DRSC id":"DRSC09957","replicate 1, z-score of dpERK with insulin":-0.66}
{"gene":"Cad89D (Cadherin 89D)","DRSC id":"DRSC15022","replicate 1, z-score of dpERK with insulin":1.67}
{"gene":"Trmt6 (tRNA methyltransferase 6 non-catalytic subunit)","DRSC id":"DRSC03272","replicate 1, z-score of dpERK with insulin":0.52}
{"gene":"tHMG2 (testis-enriched HMG-box-containing protein 2)","DRSC id":"DRSC16182","replicate 1, z-score of dpERK with insulin":1.02}
{"gene":"hebe","DRSC id":"DRSC05192","replicate 1, z-score of dpERK with insulin":0.54}
{"gene":"hebe","DRSC id":"DRSC06605","replicate 1, z-score of dpERK with insulin":0.15}
{"gene":"hebe","DRSC id":"DRSC21614","replicate 1, z-score of dpERK with insulin":1.28}
{"gene":"Galt (Galactose-1-phosphate uridylyltransferase)","DRSC id":"DRSC03161","replicate 1, z-score of dpERK with insulin":0.15}

Individual results from the list:
CG14187 [DRSC10186], replicate 1, z-score of dpERK with insulin: 0.17
Result for hebe [DRSC21614] under “replicate 1, z-score of dpERK with insulin”: 1.28
For “replicate 1, z-score of dpERK with insulin”, CG8726 [DRSC07250] is entered as 1.13

Additional results follow:
{"gene":"scpr-A + scpr-C + scpr-B","DRSC id":"DRSC15715","replicate 1, z-score of dpERK with insulin":-0.59}
{"gene":"vret (vreteno)","DRSC id":"DRSC15640","replicate 1, z-score of dpERK with insulin":-0.41}
{"gene":"CG12684","DRSC id":"DRSC17875","replicate 1, z-score of dpERK with insulin":0.47}
{"gene":"HemK1 (HemK methyltransferase 1)","DRSC id":"DRSC03253","replicate 1, z-score of dpERK with insulin":-1.95}
{"gene":"Nepl11 (Neprilysin-like 11)","DRSC id":"DRSC12333","replicate 1, z-score of dpERK with insulin":0.46}
{"gene":"GstT2 (Glutathione S transferase T2)","DRSC id":"DRSC06244","replicate 1, z-score of dpERK with insulin":0.22}
{"gene":"CG8520","DRSC id":"DRSC07206","replicate 1, z-score of dpERK with insulin":0.07}
{"gene":"CG30428","DRSC id":"DRSC04041","replicate 1, z-score of dpERK with insulin":-1.85}
{"gene":"CG1368","DRSC id":"DRSC19537","replicate 1, z-score of dpERK with insulin":-0.06}
{"gene":"Bet1 (Blocked early in transport 1)","DRSC id":"DRSC10088","replicate 1, z-score of dpERK with insulin":-2.54}
{"gene":"cdi (center divider)","DRSC id":"DRSC16922","replicate 1, z-score of dpERK with insulin":-1.09}
